Measured data: PubChem BioAssay AID1259308 (NCATS, 2017)

Screen: 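Genes whose loss raises luciferase production in HEK293 cells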 (primary screen)
System: human HEK293 embryonic kidney cells stably expressing firefly luciferase (HEK-CMV-Luc2-Hygro)
Reagents: single siRNA against human genes, 0.8 pmol siRNA per well
Time to read-out: 72 h
Read-out: 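Reporter luminescence and viable-cell signal on separate replicate plates, given as percent of non-targeting control and median/MAD z-scores, plus per-cell luciferase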
Reading the numbers: total luciferase, z-score and total luciferase, % of control: higher = more reporter protein produced
Active means: 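Active when the median/MAD z-score for overall luciferase is greater than 3; a gene was taken forward for validation with new siRNAs if at least two of its three siRNAs passed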
Meaning of the calls: active = raised luciferase; inactive = no rise
The whole screen tested about 59,000 reagents; below is a random part of them. Over the whole deposit, about 1,510 (2.6%) got an active call. 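Calls use total luciferase alone and ignore viability, so some active siRNAs may act by altering cell number.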 The numbers tell different reagents against one gene apart. Not all columns of the deposit are shown. Reagent sequences are not shown.

| gene | siRNA no. | total luciferase, z-score | total luciferase, % of control | Call |
| --- | --- | --- | --- | --- |
| IL12RB2 | 1 | -0.424 | 73.4 | inactive |
| IL12RB2 | 2 | 0.0675 | 83.2 | inactive |
| IL12RB2 | 3 | -0.963 | 62.7 | inactive |
| ACTRT2 | 1 | 0.718 | 96.2 | inactive |
| ACTRT2 | 2 | 0.00717 | 82 | inactive |
| ACTRT2 | 3 | 1.32 | 108 | inactive |
| CDIN1 | 1 | 0.617 | 94.2 | inactive |
| CDIN1 | 2 | 2.57 | 133 | inactive |
| CDIN1 | 3 | 0.604 | 93.9 | inactive |
| PRPF6 | 1 | 1.67 | 115 | inactive |
| PRPF6 | 2 | 0.64 | 94.6 | inactive |
| PRPF6 | 3 | -0.667 | 68.6 | inactive |
| LOC729254 | 1 | -0.498 | 72 | inactive |
| LOC729254 | 2 | 0.101 | 83.9 | inactive |
| LOC729254 | 3 | -2.88 | 24.6 | inactive |
| RGN | 1 | 0.389 | 89.6 | inactive |
| RGN | 2 | -1.83 | 45.4 | inactive |
| RGN | 3 | -1.98 | 42.4 | inactive |
| FAM114A1 | 1 | 0.352 | 88.9 | inactive |
| FAM114A1 | 2 | -0.907 | 63.9 | inactive |
| FAM114A1 | 3 | -0.197 | 78 | inactive |
| WDR73 | 1 | -0.681 | 68.3 | inactive |
| WDR73 | 2 | 0.116 | 84.2 | inactive |
| WDR73 | 3 | -0.419 | 73.6 | inactive |

In a second layout: results already given
gene,siRNA no.,"total luciferase, z-score","total luciferase, % of control",Call
IL12RB2,3,-0.963,62.7,inactive
ACTRT2,1,0.718,96.2,inactive
ACTRT2,2,0.00717,82,inactive
ACTRT2,3,1.32,108,inactive
CDIN1,1,0.617,94.2,inactive

Next entries:
| gene | siRNA no. | total luciferase, z-score | total luciferase, % of control | Call |
| --- | --- | --- | --- | --- |
| S100G | 1 | -1.99 | 42.2 | inactive |
| S100G | 2 | 1.23 | 106 | inactive |
| S100G | 3 | 0.0765 | 83.4 | inactive |
| RAD51AP1 | 1 | 1.75 | 117 | inactive |
| RAD51AP1 | 2 | -0.0684 | 80.5 | inactive |
| RAD51AP1 | 3 | -0.959 | 62.8 | inactive |
| WFDC2 | 1 | 6.37 | 209 | active |
| WFDC2 | 2 | -0.0602 | 80.7 | inactive |
| WFDC2 | 3 | -0.77 | 66.6 | inactive |
| HLA-DMA | 1 | -0.281 | 76.3 | inactive |
| HLA-DMA | 2 | 1.27 | 107 | inactive |
| HLA-DMA | 3 | -2.54 | 31.3 | inactive |
| ARID5B | 1 | 0.473 | 91.3 | inactive |
| ARID5B | 2 | 0.811 | 98 | inactive |
| ARID5B | 3 | 1.94 | 121 | inactive |
| ARHGAP32 | 1 | 1.35 | 109 | inactive |
| ARHGAP32 | 2 | 0.0718 | 83.3 | inactive |
| ARHGAP32 | 3 | 0.337 | 88.6 | inactive |
| HAUS7 | 1 | -0.145 | 79 | inactive |
| HAUS7 | 2 | 2.94 | 140 | inactive |
| HAUS7 | 3 | -1.04 | 61.1 | inactive |
| OXSR1 | 1 | -1.78 | 46.5 | inactive |
| OXSR1 | 2 | -0.357 | 74.8 | inactive |
| OXSR1 | 3 | -0.486 | 72.2 | inactive |
| CIMAP2 | 1 | 3.16 | 145 | active |
| CIMAP2 | 2 | -1.1 | 60 | inactive |
| CIMAP2 | 3 | 1.81 | 118 | inactive |
| GOLGA8A | 1 | -1.1 | 59.9 | inactive |
| GOLGA8A | 2 | 0.182 | 85.5 | inactive |
| GOLGA8A | 3 | -1.35 | 55 | inactive |
| FAM13C | 1 | 0.0449 | 82.8 | inactive |
| FAM13C | 2 | 1.37 | 109 | inactive |
| FAM13C | 3 | 0.701 | 95.8 | inactive |
